Data set [1] deals with maize leaf tissues. As to the kind of experiment: Metabolite profiling of leaves of six maize varieties, drought stress vs well-watered. Conditions: for change of level in drought stressed plants compared to well watered plants (in words): six maize varieties, leaf tissue; for Fold Change (FS/FI): metabolite level in leaf, drought stress vs well-watered.
Data set [2] deals with corn hybrids (R and S) leaf samples. Kind of data set: Metabolite profiling of corn hybrids R and S, drought vs fully irrigated, pre-flowering time course. Conditions: eight pre-flowering time points, FIGS. 1A-1D. Also on record: species or system maize.

Entries after “also recorded” stand apart in the source; their conditions may differ.

Take `C[C@H](N)C(=O)O` [alanine]: the “change of level in drought stressed plants compared to well watered plants (in words)” value (from here on “change of level”) in data set [1] is recorded as “showed decreases; also recorded: decrease”.

As for `NC(=O)NC1NC(=O)NC1=O` (stereo not shown) [allantoin], in data set [2], the “level under drought conditions (in words)” value is reported as “increased”. For the same molecule, the “Fold Change (FS/FI)” value in data set [1] (maize Entry 1) came to 1.69; in data set [1] (maize Entry 2), 36.69; in data set [1] (maize Entry 3), 5.92; in data set [1] (maize Entry 4) it was 7.28; in data set [1] (maize Entry 5), 9.85; in data set [1] (maize Entry 6), 2.06. Further, the “change of level” value in data set [1] was “significant increase”.

In the case of `NC(=O)C[C@H](N)C(=O)O` [asparagine], the “level under drought conditions (in words)” value in data set [2] is listed as “increased”. Further, in data set [1] (drought vs well-watered, summary of Table 1), the “most dramatic increase amongst the metabolites in drought conditions” value is listed as “approximately 50 fold”. The “Fold Change (FS/FI)” value in data set [1] (maize Entry 1) is given as 4.11; in data set [1] (maize Entry 2), 53.87; in data set [1] (maize Entry 3), 1.62; in data set [1] (maize Entry 4), 20.59; in data set [1] (maize Entry 5) it was 3.66; in data set [1] (maize Entry 6) it was 0.99. Moreover, in data set [1], the “change of level” value is given as “significant increase”.

On to `N[C@@H](CCC(=O)O)C(=O)O` [glutamate], for which the “Fold Change (FS/FI)” value in data set [1] (maize Entry 1) was found to be 0.8; in data set [1] (maize Entry 2), 0.47; in data set [1] (maize Entry 3), 0.57; in data set [1] (maize Entry 4), 0.77; in data set [1] (maize Entry 5), 0.95; in data set [1] (maize Entry 6), 0.45. Moreover, the “change of level” value in data set [1] is listed as “showed decreases”.

In the case of `NC(=O)CC[C@H](N)C(=O)O` [glutamine], the “level under drought conditions (in words)” value in data set [2] was “increased”. In addition, the “Fold Change (FS/FI)” value is given as 1.3 in data set [1] (maize Entry 1); 4.76 in data set [1] (maize Entry 2); 0.78 in data set [1] (maize Entry 3); 3.79 in data set [1] (maize Entry 4); 2.59 in data set [1] (maize Entry 5); 0.77 in data set [1] (maize Entry 6). In addition, the “change of level” value in data set [1] was “significant increase”.

Turning to `NCC(=O)O` [glycine], the “change of level” value in data set [1] was “increase”.

On to `O=C(O)[C@@H]1CCCN1` [proline], for which, in data set [2], the “level under drought conditions (in words)” value was “increased”. Also, the “change of level” value in data set [1] is “only increased in entry 5 (p<0.05), entry 3 (p>0.05), and entry 6 (p>0.05)”.

With `N[C@@H](CO)C(=O)O` [serine], the “change of level” value in data set [1] is on record as “increase”.
